# Test results published in publication PMC4671672.
# By UniProt entry, the sequences of proteins in these tests, tags left out. Where a name states a change or a piece, a line headed by the entry shows the natural chain unless it says otherwise.
# UniProt P42582: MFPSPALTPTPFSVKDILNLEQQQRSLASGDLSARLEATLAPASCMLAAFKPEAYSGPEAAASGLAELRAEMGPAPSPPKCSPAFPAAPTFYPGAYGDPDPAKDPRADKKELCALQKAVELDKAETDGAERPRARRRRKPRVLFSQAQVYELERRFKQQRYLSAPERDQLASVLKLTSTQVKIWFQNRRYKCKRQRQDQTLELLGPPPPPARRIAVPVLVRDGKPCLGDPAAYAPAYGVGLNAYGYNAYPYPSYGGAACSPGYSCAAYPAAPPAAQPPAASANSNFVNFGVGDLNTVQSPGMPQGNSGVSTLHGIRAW
# UniProt Q08369: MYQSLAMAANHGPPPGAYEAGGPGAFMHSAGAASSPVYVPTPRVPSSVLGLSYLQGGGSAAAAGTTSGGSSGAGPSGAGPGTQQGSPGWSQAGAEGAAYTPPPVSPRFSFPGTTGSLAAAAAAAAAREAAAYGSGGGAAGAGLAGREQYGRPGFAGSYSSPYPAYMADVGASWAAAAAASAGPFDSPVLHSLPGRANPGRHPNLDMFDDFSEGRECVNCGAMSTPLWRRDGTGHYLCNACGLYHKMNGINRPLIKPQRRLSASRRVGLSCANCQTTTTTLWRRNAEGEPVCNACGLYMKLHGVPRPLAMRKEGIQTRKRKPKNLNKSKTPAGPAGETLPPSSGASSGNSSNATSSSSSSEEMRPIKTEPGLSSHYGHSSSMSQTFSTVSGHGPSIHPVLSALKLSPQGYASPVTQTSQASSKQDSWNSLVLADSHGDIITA
# These are yes or no findings as the source states them, for the method shown. Binding seen in cells or lysates may run through a third protein. Some binding calls cover weakened binding; strength is not graded here.
# Biological target: FLAG-NKX2-5 (mouse NKX2-5, pEF-FLAG-NKX2-5) (mouse) (UniProt P42582)
# Assay: co-IP; protein extracts of COS-1 cells expressing FLAG-NKX2-5 (50 ug) and of COS-1 cells expressing GATA4 (30-84 ug) mixed; agarose bound anti-FLAG M2 antibody, overnight at +4°C in lysis buffer (20 mM Tris pH 7.5, 150 mM NaCl, 1 mM EDTA, 1 mM EGTA, 1% Triton X-100, 2.5 mM sodium pyrophosphate); immunoblot with anti-GATA4 and anti-NKX2-5; bands quantified, unspecific binding subtracted, normalized to input and to …
row,binding,Substance
1,binds,mouse GATA4 S269C+Q274H (from UniProt Q08369 1-441)
2,binds,wild type mouse GATA4 (pMT2-GATA4) (from UniProt Q08369 1-441)
